Reference: patent US12447171B2, “Azacitidine in combination with venetoclax, gilteritinib, midostaurin or other compounds for treating leukemia or myelodysplastic syndrome” (CELGENE QUANTICEL RESEARCH, INC., priority 2019, dated 2025)
pEC50: −log10 of the molar value.

What was measured:
Experiment in all cases: Cell viability assay (Cell Titer-Glo), BaF3 cells expressing FLT3
Type in all cases: cell-based
Conditions in all cases: Mus musculus
BaF-FLT3(WT) = test system: BaF-FLT3(WT)
BaF-FLT3-ITD = test system: BaF-FLT3-ITD
BaF-FLT3(D835Y) = test system: BaF-FLT3(D835Y)

**Q.** `CO[C@@H]1[C@H](N(C)C(=O)c2ccccc2)C[C@H]2O[C@]1(C)n1c3ccccc3c3c4c(c5c6ccccc6n2c5c31)C(=O)NC4` [Midostaurin] was tested. Which pEC50 (BaF-FLT3(WT)) did it give?
**A.** The pEC50 was 7.64.

**Q.** What about the pEC50 (BaF-FLT3-ITD) of the same compound?
**A.** The pEC50 was 8.26.

**Q.** And the pEC50 (BaF-FLT3(D835Y))?
**A.** Its pEC50 is 8.27.
